{
  "sequences": {"note": "Sequences of proteins named here, by UniProt entry; tags and fusion partners are left off.", "UniProt P11712, whole entry, looked up": "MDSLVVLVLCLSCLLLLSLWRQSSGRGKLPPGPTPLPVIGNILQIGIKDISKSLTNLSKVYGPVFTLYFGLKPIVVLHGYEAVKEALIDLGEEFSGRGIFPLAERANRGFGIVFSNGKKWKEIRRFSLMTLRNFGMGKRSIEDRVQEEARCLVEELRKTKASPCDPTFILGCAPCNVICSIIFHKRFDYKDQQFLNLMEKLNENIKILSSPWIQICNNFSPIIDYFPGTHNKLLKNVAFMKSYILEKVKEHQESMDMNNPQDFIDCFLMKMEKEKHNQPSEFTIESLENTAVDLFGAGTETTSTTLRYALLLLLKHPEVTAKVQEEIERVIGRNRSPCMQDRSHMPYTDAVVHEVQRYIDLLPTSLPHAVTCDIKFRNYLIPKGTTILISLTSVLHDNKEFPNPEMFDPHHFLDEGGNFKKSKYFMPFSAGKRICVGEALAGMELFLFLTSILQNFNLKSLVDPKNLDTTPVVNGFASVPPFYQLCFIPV", "UniProt P05177, whole entry, looked up": "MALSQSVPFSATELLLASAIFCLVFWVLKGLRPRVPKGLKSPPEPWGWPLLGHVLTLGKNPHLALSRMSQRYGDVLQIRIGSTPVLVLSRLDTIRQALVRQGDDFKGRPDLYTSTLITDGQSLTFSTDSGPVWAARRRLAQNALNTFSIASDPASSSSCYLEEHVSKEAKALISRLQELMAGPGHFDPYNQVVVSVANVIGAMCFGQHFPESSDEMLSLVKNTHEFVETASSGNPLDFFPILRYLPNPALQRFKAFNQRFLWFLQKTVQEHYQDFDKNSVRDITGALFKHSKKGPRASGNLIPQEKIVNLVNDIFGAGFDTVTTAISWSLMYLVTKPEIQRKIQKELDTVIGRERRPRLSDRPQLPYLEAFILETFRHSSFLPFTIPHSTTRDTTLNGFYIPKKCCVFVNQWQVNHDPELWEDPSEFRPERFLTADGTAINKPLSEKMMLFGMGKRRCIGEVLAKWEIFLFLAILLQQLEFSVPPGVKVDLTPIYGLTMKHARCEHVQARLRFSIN"},
  "source": "PubChem BioAssay (Tox21)",
  "note": "Where “and” joins values, the source holds several entries; their conditions need not be identical. Identical values can stand only once. This list was built around the results that the source calls inconclusive (neither active nor inactive); the mix of calls is not that of the screen. Where the call is inconclusive, the potency comes from a doubtful curve fit. More than one record can exist for a structure, and the calls need not agree. Calls of active or inactive are those of the source. Calls follow the shape of the dose curve; as a rule, active = well fitted inhibition curve with a large enough effect in the repeat runs; inconclusive = weak or mixed curves; inactive = no such curve, though single readings can be large or run the other way. % is scaled to controls: 0 for no effect and ±100 for the full control effect; potency is read from the fitted curve at half-maximal effect. Also: nearly all actives have a fitted effect of over 50% in size.",
  "data": [
    {"molecular_target": "Cytochrome P450 2C9 (Homo sapiens) (UniProt P11712)", "test": "Cytochrome P450 Family 2 Subfamily C Member 9 (CYP2C9) small molecule antagonists: luciferase reporter qHTS assay (AID 1671198)", "conditions": "P450-Glo CYP2C9 enzyme assay, luciferin luminescence; series mostly up to 115 µM; activity change, negative = inhibition: at the top concentration", "summary_of_the_method": "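Enzyme-substrate mix preincubated with compound 10 min at room temperature; reaction started with NADPH regeneration solution, 1 h 37C. Luminescent luciferin product read after 20 min detection reagent.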", "values": [
      {"smiles": "CC(C)CCCCCCOC(=O)c1ccccc1C(=O)OCCCCCCC(C)C", "Potency": "inconclusive: 63.2 µM [inhibitor, partial curve] and inconclusive: 56.4 µM [inhibitor, partial curve] and inconclusive: 89.4 µM [inhibitor, partial curve, poor fit]"},
      {"smiles": "Nc1ccc(N=Nc2ccc(-c3ccc(N=Nc4c(S(=O)(=O)O)cc5cc(S(=O)(=O)O)c(N=Nc6ccccc6)c(O)c5c4N)cc3)cc2)c(N)c1", "Potency": "inconclusive: 20.4 µM [inhibitor, partial curve]"},
      {"smiles": "c1ccc2c(c1)Nc1ccccc1S2", "Potency": "inconclusive: 29.9 µM [inhibitor] and inactive"},
      {"smiles": "O=S(=O)(c1ccc(Cl)cc1)c1ccc(Cl)cc1", "Potency": "inconclusive: 24 µM [inhibitor]"},
      {"smiles": "O=C(O)CCCc1ccc(N(CCCl)CCCl)cc1", "Potency": "inconclusive: 63.3 µM [inhibitor, partial curve, poor fit]"},
      {"smiles": "Clc1cc(C(Cl)(Cl)Cl)cnc1Cl", "Potency": "inconclusive: 39.9 µM [inhibitor, partial curve, poor fit]"},
      {"smiles": "CCCCC(CC)COP(=O)(Oc1ccccc1)Oc1ccccc1", "note": "(stereo not drawn)", "Potency": "active: 3.99 µM"},
      {"smiles": "CC(C)(OOC(C)(C)c1ccccc1)c1ccccc1", "Potency": "active: 31.3 µM and active: 31.7 µM"},
      {"smiles": "c1ccc2c(c1)CCNC2", "Potency": "active: 32.5 µM"},
      {"smiles": "C[CH2][Hg][N]1C(=O)C2C(C1=O)C1(Cl)C(Cl)=C(Cl)C2(Cl)C1(Cl)Cl", "note": "(stereo not drawn)", "Potency": "active: 13.5 µM"},
      {"smiles": "Nc1cc(Cl)ccc1Cl", "activity change, negative = inhibition": "inactive: 21.3%"},
      {"smiles": "CCOP(=O)(OCC)SCCSCC", "Potency": "inconclusive: 30.3 µM [inhibitor, partial curve]"},
      {"smiles": "OC(c1ccc(Cl)cc1)(c1cncnc1)c1ccccc1Cl", "note": "(stereo not drawn)", "Potency": "active: 7.23 µM and active: 6.33 µM"},
      {"smiles": "Cn1sc(Cl)cc1=O", "Potency": "active: 71 µM"},
      {"smiles": "CCc1ccccc1N", "Potency": "inconclusive: 79.6 µM [inhibitor]"},
      {"smiles": "CCCCOCC1CO1", "note": "(stereo not drawn)", "Potency": "inactive"},
      {"smiles": "O=NN1CCCC1", "Potency": "inconclusive: 37.3 µM [inhibitor, partial curve] and inactive"},
      {"smiles": "C[C@]12CCC(=O)C=C1CC[C@@H]1[C@@H]2CC[C@@]2(C)[C@H]1CC[C@]2(C)O", "Potency": "inconclusive: 34.7 µM [inhibitor, partial curve]"},
      {"smiles": "CCCN(CCOc1c(Cl)cc(Cl)cc1Cl)C(=O)n1ccnc1", "Potency": "active: 457 nM and active: 796 nM"},
      {"smiles": "CCC(=O)C(CC(C)N(C)C)(c1ccccc1)c1ccccc1", "note": "(stereo not drawn)", "Potency": "inconclusive: 54.2 µM [inhibitor, partial curve]"},
      {"smiles": "C[Si](Cn1cncn1)(c1ccc(F)cc1)c1ccc(F)cc1", "Potency": "active: 1.84 µM and active: 2 µM"},
      {"smiles": "NCCc1ccc(O)cc1", "Potency": "inconclusive: 35.3 µM [inhibitor, partial curve] and inconclusive: 15.5 µM [inhibitor, partial curve, poor fit]"},
      {"smiles": "CCCCN(CCCC)C(=S)S", "Potency": "inconclusive: 63.3 µM [inhibitor, partial curve]"},
      {"smiles": "CCCCCCn1cc[n+](C)c1", "Potency": "inactive and inconclusive: 65.9 µM [inhibitor, partial curve]"},
      {"smiles": "NNC(=O)c1cccnc1", "Potency": "inconclusive: 56.6 µM [inhibitor, partial curve, poor fit]"}
    ]},
    {"molecular_target": "Cytochrome P450 1A2 (Homo sapiens) (UniProt P05177)", "test": "Cytochrome P450 Family 1 Subfamily A Member 2 (CYP1A2) small molecule antagonists: luciferase reporter qHTS assay (AID 1671199)", "conditions": "P450-Glo CYP1A2 enzyme, luciferin luminescence, 1 h; series mostly up to 115 µM; activity change, negative = inhibition: at the top concentration", "summary_of_the_method": "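Inhibition of CYP1A2 conversion of proluciferin to luciferin, detected by luminescence. Reaction run 1 h at room temperature with NADPH regeneration after brief compound preincubation.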", "values": [
      {"smiles": "COP(=S)(OC)Oc1ccc(Sc2ccc(OP(=S)(OC)OC)cc2)cc1", "Potency": "inconclusive: 39.9 µM [inhibitor, partial curve] and inactive"},
      {"smiles": "CCOCn1c(-c2ccc(Cl)cc2)c(C#N)c(Br)c1C(F)(F)F", "Potency": "active: 0.633 µM"},
      {"smiles": "O=C(N[C@H](c1ccccc1)[C@@H]1CN2CCC1CC2)c1c(Cl)ccc(C(F)(F)F)c1Cl", "activity change, negative = inhibition": "inactive: -6.7%"},
      {"smiles": "CNC(=O)Oc1cc(C)c(SC)c(C)c1", "Potency": "active: 6.33 µM"},
      {"smiles": "COCCl", "Potency": "inconclusive: 65.7 µM [inhibitor, partial curve, poor fit] and active: 20.1 µM"},
      {"smiles": "CC(C)CCCCCCOC(=O)c1ccccc1C(=O)OCCCCCCC(C)C", "Potency": "inconclusive: 56.4 µM [inhibitor, partial curve] and inconclusive: 79.6 µM [inhibitor, partial curve, poor fit]"},
      {"smiles": "Nc1ccc(N=Nc2ccc(-c3ccc(N=Nc4c(S(=O)(=O)O)cc5cc(S(=O)(=O)O)c(N=Nc6ccccc6)c(O)c5c4N)cc3)cc2)c(N)c1", "Potency": "inconclusive: 18.2 µM [inhibitor]"},
      {"smiles": "O=C(O)CCCc1ccc(N(CCCl)CCCl)cc1", "Potency": "inconclusive: 89.8 µM [inhibitor, partial curve, poor fit]"},
      {"smiles": "Clc1cc(C(Cl)(Cl)Cl)cnc1Cl", "Potency": "active: 7.96 µM"},
      {"smiles": "CCCCC(CC)COP(=O)(Oc1ccccc1)Oc1ccccc1", "note": "(stereo not drawn)", "Potency": "active: 25.2 µM"},
      {"smiles": "CC(C)(OOC(C)(C)c1ccccc1)c1ccccc1", "Potency": "inactive and inconclusive: 39.9 µM [inhibitor, partial curve]"},
      {"smiles": "c1ccc2c(c1)CCNC2", "Potency": "inconclusive: 64.9 µM [inhibitor, partial curve]"},
      {"smiles": "C[CH2][Hg][N]1C(=O)C2C(C1=O)C1(Cl)C(Cl)=C(Cl)C2(Cl)C1(Cl)Cl", "note": "(stereo not drawn)", "Potency": "inconclusive: 19 µM [inhibitor, single point]"},
      {"smiles": "Nc1cc(Cl)ccc1Cl", "Potency": "active: 31.5 µM"},
      {"smiles": "CCOP(=O)(OCC)SCCSCC", "Potency": "active: 34 µM and inconclusive: 39.9 µM [inhibitor, partial curve]"},
      {"smiles": "OC(c1ccc(Cl)cc1)(c1cncnc1)c1ccccc1Cl", "note": "(stereo not drawn)", "Potency": "inconclusive: 64.4 µM [inhibitor, partial curve] and inconclusive: 35.6 µM [inhibitor, partial curve]"},
      {"smiles": "Cn1sc(Cl)cc1=O", "Potency": "inconclusive: 63.3 µM [inhibitor, partial curve]"},
      {"smiles": "CCc1ccccc1N", "Potency": "inconclusive: 39.9 µM [inhibitor, partial curve]"},
      {"smiles": "CCCCOCC1CO1", "note": "(stereo not drawn)", "Potency": "inconclusive: 63.7 µM [inhibitor]"},
      {"smiles": "O=NN1CCCC1", "Potency": "active: 33.2 µM and inactive"},
      {"smiles": "C[C@]12CCC(=O)C=C1CC[C@@H]1[C@@H]2CC[C@@]2(C)[C@H]1CC[C@]2(C)O", "Potency": "inconclusive: 40.3 µM [inhibitor, partial curve]"},
      {"smiles": "CCCN(CCOc1c(Cl)cc(Cl)cc1Cl)C(=O)n1ccnc1", "Potency": "active: 129 nM and active: 224 nM"},
      {"smiles": "CCC(=O)C(CC(C)N(C)C)(c1ccccc1)c1ccccc1", "note": "(stereo not drawn)", "Potency": "inactive and inconclusive: 17.7 µM [inhibitor, partial curve, poor fit] and inconclusive: 24.2 µM [inhibitor, partial curve]"},
      {"smiles": "C[Si](Cn1cncn1)(c1ccc(F)cc1)c1ccc(F)cc1", "Potency": "active: 32.8 µM and active: 20 µM"},
      {"smiles": "NCCc1ccc(O)cc1", "Potency": "active: 39.6 µM and inactive"},
      {"smiles": "CCCCN(CCCC)C(=S)S", "Potency": "inconclusive: 39.9 µM [inhibitor, partial curve, poor fit]"},
      {"smiles": "CCCCCCn1cc[n+](C)c1", "Potency": "inconclusive: 41.6 µM [inhibitor, partial curve] [middle of 4 runs]"},
      {"smiles": "NNC(=O)c1cccnc1", "Potency": "active: 12.7 µM"}
    ]}
  ]
}
